{"source": "PubChem BioAssay AID1671195 (Yale University, 2021)", "assay": "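Genes whose knockdown alters LDL uptake in liver cancer cells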 (primary screen)", "cell system": "human Huh7 hepatoma cells", "reagents": "siRNA pool against human genes, 18 nM", "time to read-out": "about 2 to 2.5 days of knockdown, then 8 h LDL uptake", "challenge": "DiI-labelled LDL at 30 µg/ml for 8 h, in lipoprotein-deficient serum medium", "measurement": "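Fluorescent LDL signal imaged in cells, scaled to the plate median, robust z-score for each replicate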", "reading the numbers": "robust z-score: higher = more LDL uptake after knockdown", "hit rule": "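Active when two or more replicates show a robust z-score above 2 or below -2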", "note": "In all, the deposit lists about 22,000 reagents; this is a random part of them. Of all reagents, about 1,510 (6.9%) were called active. 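Active includes knockdowns raising or lowering LDL uptake; positive z-scores mean more uptake, negative mean less.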"}
{"gene knocked down": "HSPG2 (heparan sulfate proteoglycan 2)", "robust z-score, replicate 1": 0.723, "robust z-score, replicate 2": 0.672, "robust z-score, replicate 3": 0.83, "call": "inactive"}
{"gene knocked down": "UBE3B (ubiquitin protein ligase E3B)", "robust z-score, replicate 1": -1.44, "robust z-score, replicate 2": 0.7, "robust z-score, replicate 3": -1.32, "call": "inactive"}
{"gene knocked down": "YEATS2 (YEATS domain containing 2)", "robust z-score, replicate 1": -2.08, "robust z-score, replicate 2": -0.0566, "robust z-score, replicate 3": -0.456, "call": "inactive"}
{"gene knocked down": "MKKS (MKKS centrosomal shuttling protein)", "robust z-score, replicate 1": 1.58, "robust z-score, replicate 2": 1.71, "robust z-score, replicate 3": 1.99, "call": "inactive"}
{"gene knocked down": "CYLC2 (cylicin 2)", "robust z-score, replicate 1": 0.933, "robust z-score, replicate 2": 0.478, "robust z-score, replicate 3": 0.799, "call": "inactive"}
{"gene knocked down": "CD2 (CD2 molecule)", "robust z-score, replicate 1": -0.187, "robust z-score, replicate 2": -0.375, "robust z-score, replicate 3": -0.599, "call": "inactive"}
{"gene knocked down": "PRDX6 (peroxiredoxin 6)", "robust z-score, replicate 1": -2.79, "robust z-score, replicate 2": -2.74, "robust z-score, replicate 3": -2.77, "call": "active"}
{"gene knocked down": "SLITRK2 (SLIT and NTRK like family member 2)", "robust z-score, replicate 1": -0.529, "robust z-score, replicate 2": -0.302, "robust z-score, replicate 3": -0.278, "call": "inactive"}
{"gene knocked down": "PTPRT (protein tyrosine phosphatase receptor type T)", "robust z-score, replicate 1": 1.6, "robust z-score, replicate 2": 1.29, "robust z-score, replicate 3": 1.21, "call": "inactive"}
{"gene knocked down": "LOC401051 (retired record)", "robust z-score, replicate 1": 0.0105, "robust z-score, replicate 2": -0.0137, "robust z-score, replicate 3": -0.271, "call": "inactive"}

Continued, starting with the last 2 of the part before.
{"gene knocked down": "PTPRT (protein tyrosine phosphatase receptor type T)", "robust z-score, replicate 1": 1.6, "robust z-score, replicate 2": 1.29, "robust z-score, replicate 3": 1.21, "call": "inactive"}
{"gene knocked down": "LOC401051 (retired record)", "robust z-score, replicate 1": 0.0105, "robust z-score, replicate 2": -0.0137, "robust z-score, replicate 3": -0.271, "call": "inactive"}
{"gene knocked down": "CFAP69 (cilia and flagella associated protein 69)", "robust z-score, replicate 1": -0.257, "robust z-score, replicate 2": -0.0575, "robust z-score, replicate 3": 0.557, "call": "inactive"}
{"gene knocked down": "LINC01854 (long independently transcribed non-coding RNA 1854)", "robust z-score, replicate 1": -0.646, "robust z-score, replicate 2": -0.576, "robust z-score, replicate 3": -0.723, "call": "inactive"}
{"gene knocked down": "GRIK2 (glutamate ionotropic receptor kainate type subunit 2)", "robust z-score, replicate 1": -0.723, "robust z-score, replicate 2": -0.477, "robust z-score, replicate 3": -0.931, "call": "inactive"}
{"gene knocked down": "ZNF398 (zinc finger protein 398)", "robust z-score, replicate 1": 0.574, "robust z-score, replicate 2": 0.902, "robust z-score, replicate 3": 0.899, "call": "inactive"}
{"gene knocked down": "EWSR1 (EWS RNA binding protein 1)", "robust z-score, replicate 1": 3.39, "robust z-score, replicate 2": 3.96, "robust z-score, replicate 3": 3.58, "call": "active"}
{"gene knocked down": "ERCC5 (ERCC excision repair 5, endonuclease)", "robust z-score, replicate 1": -1.03, "robust z-score, replicate 2": -1.14, "robust z-score, replicate 3": -0.962, "call": "inactive"}
